From PubChem BioAssay AID1347423 (Functional Genomics Laboratory (NCATS/FGL), 2020) come the findings set out here.

The campaign covered roughly 52,000 sequences. About 210 (0.4%) were called active.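 How the source made its calls: active means gene whose silencing raises cell survival under the drug, median off-target-corrected z-score across its silencing RNAs 2 or more; inactive means the rest.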 This is one part of the list.

This assay in a line: Resistance to Poly (ADP-Ribose) Polymerase inhibitor: Gene Identification via Genome-wide siRNA Screen. The note with it: mouse BRCA2 R2336H ES cells, olaparib, CellTiter-Glo viability; active compounds read high. The method in brief: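 Genome-wide siRNA screen (3 siRNAs/gene, 20 nM) in mouse ES cells carrying hypomorphic BRCA2 R2336H; olaparib 500 nM added 48 h post-transfection, CellTiter-Glo viability 72 h later. Normalized to plate-median negative control; MAD z-scores, gene median, seed-adjusted.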
In general terms: ATP-based viability assays read luminescence as a measure of living cells.
In the case of GGUGGUUACACAAGGAACATT against Phgdh, the z-score is inactive: 0.894.

In the case of GGAGGCUCAACUGUGUUAATT against Tnfrsf4, the z-score was inactive: 2.46.

In the case of GGAGAAACUUUCAAAAGACTT against Trim36, the z-score is inactive: 0.958.

As for “GGGAGUAUGAUUUUGAGGATT against A930037G23Rik”, the z-score was inactive: 0.205.

On to GGAUGGAGAAAAUGUUAUGTT against Strbp, for which the z-score is inactive: -0.314.

With “CCGCGCCGUUGAUUCAUUUTT against 4930513F16Rik”, the z-score was inactive: 0.336.

Consider GGAAGCUAUGAGUUUGGAATT against Tsga2, for which the z-score was inactive: -0.153.

For CCGUUUUGAACCAUAAAAATT against Zfp7, the z-score was inactive: -1.36.

As to GGGCAGAAUUACGAAAGUATT against Smc2l1, the z-score was inactive: -1.42.

Take GGAAUCACCCAUCUUUUUATT against Tmem32: the z-score was inactive: 1.14.

Turning to GGAUAAACAUCAUGAAGCUTT against Scgb1a1, the z-score is inactive: 0.411.

For CCAGGAUUACUAUCACAAATT against Ep400, the z-score was inactive: -1.95.

Regarding GCCAGUGGUAGCGAUAUGATT against Gm397, the z-score is inactive: 1.59.

Consider CGCAGUGAGGAGUAUGAAGTT against Nin, for which the z-score is inactive: 1.43.

GGACAGCAGUUUUUACUAGTT against Mllt10: the z-score was inactive: 0.997.

With GGAUUCCUAAAUUCUGUGATT against BC023882, the z-score is inactive: 0.701.

For the sequence “GGAAACCCACAAAAAACAATT against C630013N10Rik”, the z-score was inactive: -0.512.

In the case of GGCUACUCAGCAGAUUGUCTT against Dclre1b, the z-score is inactive: 0.507.

On to CCUUUAUUCUCUGUAUUUGTT against Obox1, for which the z-score is inactive: 0.29.

Regarding “GCCUCUGUCAUUGAAGCUGTT against D630047F21Rik”, the z-score is inactive: 0.216.

For the sequence CGGUUUGCACAAGAAAUGGTT against Svs6, the z-score was inactive: 1.11.

Regarding “GGACUUAACUAGUUGACAATT against 2810417H13Rik”, the z-score was inactive: 0.118.

For CCAUCAUAUGAUCACGAAGTT against Cd83, the z-score is inactive: -0.879.

Turning to CCAUAUCUCUAAAUGUCAATT against Opa1, the z-score was inactive: 0.767.

Consider GCAGCAAUUUCGGGUACUCTT against Tsta3, for which the z-score was inactive: 1.49.

GGGAGGUGCAAUCAGCUUUTT against Olfr1336: the z-score is inactive: 0.537.

Consider GAGAGCCAUGCAAACUAAGTT against Il19, for which the z-score was inactive: -0.291.

Consider CGAUGUGCAUUUUAAGUAGTT against Cdk2ap1, for which the z-score is inactive: 0.874.

Take GCAAAUACCGAACUCCCAGTT against Aqp12: the z-score is inactive: -0.992.
